# Where a name gives a salt, the structure may show the parent alone. ± gives the standard deviation of the averaged measurements. This is one part of the list. These are raw signals, not scaled to a control.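 HeLa cells imaged for ribosome-assembly readouts (ENP1 staining with or without export block, or inducible tagged ribosomal protein reporters); machine learning classified each cell's signal location against solvent (DMSO) controls. Hits exceeded the DMSO false-positive mean by five standard deviations, then were visually confirmed; three biological replicates.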
# Tested on: HeLa K (ENP1 immunofluorescence, +LMB)
# Test: fraction of cells with nucleolar or nucleolar/nucleoplasmic ENP1 signal (MainHitrate); higher = more cells with nucleolar/nuclear readout signal (for ENP1 -LMB: less RNAPI inhibition; for +LMB ENP1 and RP reporters: stronger nuclear/nucleolar retention, i.e. ribosome biogenesis defect)
# Conditions: concentration: 1 µM; treatment time: 6 h; ENP1 +LMB; leptomycin B: 20 nM, last 1.5 h
row,SMILES,fraction
1,O=C(O)/C=C/c1ccc(Cn2ccnc2)cc1 [Ozagrel HCl],0.133 ± 0.21
2,Nc1[nH]cnc2ncnc1-2 [Adenine],0.0886 ± 0.11
3,O=C(O)Cc1ccccc1Nc1c(Cl)cccc1Cl [Diclofenac Diethylamine],0.0966 ± 0.14
4,"C[C@H]1[C@H](NC(=O)/C(=N\OC(C)(C)C(=O)O)c2csc(N)n2)C(=O)N1S(=O)(=O)O [Aztreonam (Azactam, Cayston)]",0.0864 ± 0.046
5,O=C(Nc1c(Cl)cncc1Cl)c1ccc(OC(F)F)c(OCC2CC2)c1 [Roflumilast (Daxas)],0.129 ± 0.18
6,CCN(CC)C(=S)SSC(=S)N(CC)CC [Disulfiram (Antabuse)],0.149 ± 0.16
7,S=c1[nH]cnc2nc[nH]c12 [Mercaptopurine],0.0784 ± 0.058
8,Nc1nc2c(ncn2COCCO)c(=O)[nH]1 [Acyclovir (Aciclovir)],0.0817 ± 0.1
9,C=C1c2c(Cl)ccc(O)c2C(=O)C2=C(O)[C@]3(O)C(=O)C(C(N)=O)=C(O)[C@@H](N(C)C)[C@@H]3[C@@H](O)[C@H]12.O=C(O)c1cc(S(=O)(=O)O)ccc1O [Meclocycline Sulfosalicylate],0.132 ± 0.19
10,CC[C@H](C)C(=O)O[C@H]1C[C@@H](C)C=C2C=C[C@H](C)[C@H](CC[C@@H]3C[C@@H](O)CC(=O)O3)[C@H]21 [Lovastatin (Mevacor)],0.0906 ± 0.13
11,O=P(O)(O)C(O)(Cc1cccnc1)P(=O)(O)O [Risedronate sodium],0.108 ± 0.12
12,Nc1ccc(O)c(C(=O)O)c1 [Mesalamine (Lialda)],0.0699 ± 0.061
13,O=C(O)c1cc(-c2ccccc2)nc2ccccc12 [Cinchophen],0.0819 ± 0.12

# Reprinted: nos. 4–5
row,SMILES,fraction
4,"C[C@H]1[C@H](NC(=O)/C(=N\OC(C)(C)C(=O)O)c2csc(N)n2)C(=O)N1S(=O)(=O)O [Aztreonam (Azactam, Cayston)]",0.0864 ± 0.046
5,O=C(Nc1c(Cl)cncc1Cl)c1ccc(OC(F)F)c(OCC2CC2)c1 [Roflumilast (Daxas)],0.129 ± 0.18
